This list holds what a sample rich in targets with a hit left over. The data scatter; read single values as rough. The list shows a part of the results, in another mix than the full data.
compound: COC(=O)/C=C/c1ccccc1 [methyl cinnamate]; assay: log2 ratio of iodoacetamide-alkyne labeling of the cysteine site, DMSO over compound (competition); higher = stronger covalent engagement of the cysteine by the compound, active = 1 or more; conditions: 500 µM; treatment time 1 h; system: HEK293T cell lysate
Outline: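 Reporter intensities give each cysteine's log2 competition ratio as the mean of control channels over the mean of compound channels. The samples were HEK293T lysate (2 mg/mL) given vehicle or electrophile (500 µM, 1 h, ambient temperature), then iodoacetamide alkyne (1 h), followed by click coupling to sCIP-TMT reagents, pooling, trypsin digestion overnight at 37 °C, streptavidin enrichment, acid elution, Orbitrap Eclipse LC-MS/MS with FAIMS and FragPipe quantification. Duplicate channels and three replicates were run, and cysteines quantified in only one replicate were discarded.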

Amino acid sequences for entries named in this document (tags omitted). A change or cut given only in a name is not applied to a line headed by its entry.
UniProt Q9UBB6: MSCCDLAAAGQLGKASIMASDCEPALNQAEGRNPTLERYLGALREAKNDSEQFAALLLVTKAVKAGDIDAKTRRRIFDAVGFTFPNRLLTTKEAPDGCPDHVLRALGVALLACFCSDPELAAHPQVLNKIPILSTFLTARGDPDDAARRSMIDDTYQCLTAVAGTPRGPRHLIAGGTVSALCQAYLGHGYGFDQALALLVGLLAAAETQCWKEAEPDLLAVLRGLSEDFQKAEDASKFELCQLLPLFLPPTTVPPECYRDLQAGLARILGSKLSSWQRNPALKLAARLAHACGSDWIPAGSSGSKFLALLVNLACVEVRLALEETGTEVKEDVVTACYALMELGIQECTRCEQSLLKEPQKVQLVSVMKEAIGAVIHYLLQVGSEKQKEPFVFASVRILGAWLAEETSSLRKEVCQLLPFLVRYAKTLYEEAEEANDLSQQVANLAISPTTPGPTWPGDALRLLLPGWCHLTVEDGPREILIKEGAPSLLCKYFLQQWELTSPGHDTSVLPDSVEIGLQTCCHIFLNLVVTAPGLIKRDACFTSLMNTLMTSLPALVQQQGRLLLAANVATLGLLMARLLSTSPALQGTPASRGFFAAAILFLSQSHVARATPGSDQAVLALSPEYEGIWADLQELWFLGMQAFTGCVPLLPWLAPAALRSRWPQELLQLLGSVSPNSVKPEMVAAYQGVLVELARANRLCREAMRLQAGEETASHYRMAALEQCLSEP
UniProt Q9NZC3: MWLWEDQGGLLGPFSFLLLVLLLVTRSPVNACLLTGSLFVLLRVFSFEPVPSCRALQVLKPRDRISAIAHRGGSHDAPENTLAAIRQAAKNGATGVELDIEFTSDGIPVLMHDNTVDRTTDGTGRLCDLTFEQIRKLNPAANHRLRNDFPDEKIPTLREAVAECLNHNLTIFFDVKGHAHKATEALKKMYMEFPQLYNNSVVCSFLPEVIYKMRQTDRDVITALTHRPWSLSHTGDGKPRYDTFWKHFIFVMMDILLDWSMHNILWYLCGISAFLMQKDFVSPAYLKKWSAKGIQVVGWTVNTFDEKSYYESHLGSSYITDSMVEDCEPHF
UniProt Q9NZT2: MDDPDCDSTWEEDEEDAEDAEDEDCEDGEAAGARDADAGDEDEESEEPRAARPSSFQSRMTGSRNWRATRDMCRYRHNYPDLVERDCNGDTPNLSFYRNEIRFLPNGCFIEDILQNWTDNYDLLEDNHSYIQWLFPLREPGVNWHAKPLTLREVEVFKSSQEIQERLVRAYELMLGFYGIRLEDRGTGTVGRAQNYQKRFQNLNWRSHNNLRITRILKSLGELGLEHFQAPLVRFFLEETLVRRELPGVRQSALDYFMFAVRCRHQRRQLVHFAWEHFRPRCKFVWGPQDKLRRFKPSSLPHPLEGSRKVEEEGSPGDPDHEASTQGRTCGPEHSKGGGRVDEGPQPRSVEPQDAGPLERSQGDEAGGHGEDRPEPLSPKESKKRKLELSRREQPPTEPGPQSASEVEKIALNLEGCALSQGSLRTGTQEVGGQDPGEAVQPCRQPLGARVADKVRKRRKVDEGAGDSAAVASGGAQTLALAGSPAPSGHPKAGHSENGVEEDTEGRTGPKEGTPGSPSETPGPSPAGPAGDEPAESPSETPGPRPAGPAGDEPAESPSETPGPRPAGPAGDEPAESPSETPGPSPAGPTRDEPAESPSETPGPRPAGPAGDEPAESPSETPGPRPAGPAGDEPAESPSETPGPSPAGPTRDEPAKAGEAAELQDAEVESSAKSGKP
UniProt Q9UBW7: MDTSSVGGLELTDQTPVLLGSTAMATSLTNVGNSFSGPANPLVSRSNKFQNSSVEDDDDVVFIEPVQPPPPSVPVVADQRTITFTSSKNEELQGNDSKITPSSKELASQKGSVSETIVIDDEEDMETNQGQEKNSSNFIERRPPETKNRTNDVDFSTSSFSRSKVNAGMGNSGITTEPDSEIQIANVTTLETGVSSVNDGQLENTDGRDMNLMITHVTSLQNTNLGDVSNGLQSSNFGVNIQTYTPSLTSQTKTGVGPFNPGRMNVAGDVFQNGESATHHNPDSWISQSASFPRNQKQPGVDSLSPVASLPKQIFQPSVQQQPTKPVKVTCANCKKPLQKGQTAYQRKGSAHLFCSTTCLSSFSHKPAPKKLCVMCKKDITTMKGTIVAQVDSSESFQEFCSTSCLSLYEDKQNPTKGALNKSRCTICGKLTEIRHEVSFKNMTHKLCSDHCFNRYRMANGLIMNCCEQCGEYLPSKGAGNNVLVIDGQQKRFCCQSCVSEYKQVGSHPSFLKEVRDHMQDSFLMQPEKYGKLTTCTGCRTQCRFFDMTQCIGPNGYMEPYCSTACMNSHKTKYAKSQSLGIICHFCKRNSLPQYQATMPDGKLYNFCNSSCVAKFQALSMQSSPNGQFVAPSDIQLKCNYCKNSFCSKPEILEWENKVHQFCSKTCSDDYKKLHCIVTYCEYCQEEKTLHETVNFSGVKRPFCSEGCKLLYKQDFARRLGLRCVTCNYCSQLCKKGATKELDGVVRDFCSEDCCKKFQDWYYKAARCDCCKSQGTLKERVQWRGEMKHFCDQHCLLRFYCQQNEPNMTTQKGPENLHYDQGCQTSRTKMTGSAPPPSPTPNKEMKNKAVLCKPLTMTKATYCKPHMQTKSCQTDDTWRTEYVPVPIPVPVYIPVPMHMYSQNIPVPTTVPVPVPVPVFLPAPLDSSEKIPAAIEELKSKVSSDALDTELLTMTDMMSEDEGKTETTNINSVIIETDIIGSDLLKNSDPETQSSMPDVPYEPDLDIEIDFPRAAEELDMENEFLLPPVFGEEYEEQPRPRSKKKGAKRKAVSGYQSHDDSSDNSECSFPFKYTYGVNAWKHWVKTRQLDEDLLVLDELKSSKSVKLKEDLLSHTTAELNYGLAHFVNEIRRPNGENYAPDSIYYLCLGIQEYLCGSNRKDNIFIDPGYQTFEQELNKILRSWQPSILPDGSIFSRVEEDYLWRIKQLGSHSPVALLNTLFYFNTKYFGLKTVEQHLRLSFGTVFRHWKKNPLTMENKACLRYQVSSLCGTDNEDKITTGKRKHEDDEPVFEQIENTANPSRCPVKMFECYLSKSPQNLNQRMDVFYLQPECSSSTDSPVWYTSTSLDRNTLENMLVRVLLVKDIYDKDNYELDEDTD
UniProt Q9P266: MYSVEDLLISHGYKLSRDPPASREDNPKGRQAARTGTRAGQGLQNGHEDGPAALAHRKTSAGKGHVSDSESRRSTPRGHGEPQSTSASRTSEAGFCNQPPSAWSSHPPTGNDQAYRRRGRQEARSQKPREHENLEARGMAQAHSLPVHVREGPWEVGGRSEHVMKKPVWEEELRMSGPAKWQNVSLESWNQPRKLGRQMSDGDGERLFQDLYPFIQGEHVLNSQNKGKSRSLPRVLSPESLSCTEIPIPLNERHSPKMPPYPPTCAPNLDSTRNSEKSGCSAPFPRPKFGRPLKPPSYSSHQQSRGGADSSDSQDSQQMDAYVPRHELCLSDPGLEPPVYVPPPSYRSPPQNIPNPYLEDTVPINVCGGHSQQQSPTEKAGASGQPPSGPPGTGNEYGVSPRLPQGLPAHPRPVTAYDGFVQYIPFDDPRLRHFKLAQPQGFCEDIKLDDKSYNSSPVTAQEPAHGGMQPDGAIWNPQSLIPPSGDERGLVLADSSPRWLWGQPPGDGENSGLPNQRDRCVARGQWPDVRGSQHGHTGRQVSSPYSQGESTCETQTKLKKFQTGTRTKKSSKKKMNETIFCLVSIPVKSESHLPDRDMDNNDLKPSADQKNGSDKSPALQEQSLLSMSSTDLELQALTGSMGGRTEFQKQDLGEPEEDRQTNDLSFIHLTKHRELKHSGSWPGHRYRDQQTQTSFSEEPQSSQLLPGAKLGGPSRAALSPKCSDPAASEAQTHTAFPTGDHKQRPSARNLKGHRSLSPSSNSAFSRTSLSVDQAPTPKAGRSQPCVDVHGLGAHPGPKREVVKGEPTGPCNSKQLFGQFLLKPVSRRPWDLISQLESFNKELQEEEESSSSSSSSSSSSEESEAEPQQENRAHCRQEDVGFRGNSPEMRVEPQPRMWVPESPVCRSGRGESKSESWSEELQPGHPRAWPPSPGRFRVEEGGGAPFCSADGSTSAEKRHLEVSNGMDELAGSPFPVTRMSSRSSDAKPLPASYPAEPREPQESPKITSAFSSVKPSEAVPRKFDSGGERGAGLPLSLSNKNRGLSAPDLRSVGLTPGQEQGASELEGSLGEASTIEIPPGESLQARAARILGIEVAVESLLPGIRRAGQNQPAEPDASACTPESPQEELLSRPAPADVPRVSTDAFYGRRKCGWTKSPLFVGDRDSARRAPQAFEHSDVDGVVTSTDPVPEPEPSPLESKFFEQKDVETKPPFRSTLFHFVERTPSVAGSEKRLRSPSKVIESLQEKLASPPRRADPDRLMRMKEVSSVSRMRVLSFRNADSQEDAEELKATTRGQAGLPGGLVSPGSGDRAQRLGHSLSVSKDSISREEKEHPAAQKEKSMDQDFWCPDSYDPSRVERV
UniProt Q9NX40: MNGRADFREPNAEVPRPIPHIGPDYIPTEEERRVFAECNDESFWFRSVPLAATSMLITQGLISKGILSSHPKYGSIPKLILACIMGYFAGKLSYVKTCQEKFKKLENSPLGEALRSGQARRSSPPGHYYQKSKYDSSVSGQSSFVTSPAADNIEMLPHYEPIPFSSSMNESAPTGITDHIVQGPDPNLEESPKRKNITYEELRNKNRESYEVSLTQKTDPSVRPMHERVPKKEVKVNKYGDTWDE
UniProt Q9P0L0: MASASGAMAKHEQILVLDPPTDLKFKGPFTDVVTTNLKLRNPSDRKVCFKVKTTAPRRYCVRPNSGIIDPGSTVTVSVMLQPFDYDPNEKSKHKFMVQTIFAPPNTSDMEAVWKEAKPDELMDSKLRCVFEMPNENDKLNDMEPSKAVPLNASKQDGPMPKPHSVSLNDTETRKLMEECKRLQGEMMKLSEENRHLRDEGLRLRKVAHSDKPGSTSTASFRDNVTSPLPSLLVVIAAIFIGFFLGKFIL
UniProt Q9UBT2: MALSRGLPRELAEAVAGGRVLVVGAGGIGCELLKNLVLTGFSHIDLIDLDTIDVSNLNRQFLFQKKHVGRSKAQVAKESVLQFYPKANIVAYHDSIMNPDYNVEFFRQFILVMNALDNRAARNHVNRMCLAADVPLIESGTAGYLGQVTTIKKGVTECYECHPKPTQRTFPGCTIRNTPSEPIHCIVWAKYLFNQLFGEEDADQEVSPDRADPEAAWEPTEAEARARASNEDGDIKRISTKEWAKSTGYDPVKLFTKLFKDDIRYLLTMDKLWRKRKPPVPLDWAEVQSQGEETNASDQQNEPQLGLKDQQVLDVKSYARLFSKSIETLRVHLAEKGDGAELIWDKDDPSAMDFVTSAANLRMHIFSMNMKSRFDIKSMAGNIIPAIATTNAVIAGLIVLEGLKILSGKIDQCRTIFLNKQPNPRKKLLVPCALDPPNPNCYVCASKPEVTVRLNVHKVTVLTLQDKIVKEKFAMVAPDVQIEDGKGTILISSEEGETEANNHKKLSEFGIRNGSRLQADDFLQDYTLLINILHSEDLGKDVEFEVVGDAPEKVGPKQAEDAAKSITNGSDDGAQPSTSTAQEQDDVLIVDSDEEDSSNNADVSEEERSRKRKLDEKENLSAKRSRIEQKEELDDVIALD
UniProt Q9UBE0: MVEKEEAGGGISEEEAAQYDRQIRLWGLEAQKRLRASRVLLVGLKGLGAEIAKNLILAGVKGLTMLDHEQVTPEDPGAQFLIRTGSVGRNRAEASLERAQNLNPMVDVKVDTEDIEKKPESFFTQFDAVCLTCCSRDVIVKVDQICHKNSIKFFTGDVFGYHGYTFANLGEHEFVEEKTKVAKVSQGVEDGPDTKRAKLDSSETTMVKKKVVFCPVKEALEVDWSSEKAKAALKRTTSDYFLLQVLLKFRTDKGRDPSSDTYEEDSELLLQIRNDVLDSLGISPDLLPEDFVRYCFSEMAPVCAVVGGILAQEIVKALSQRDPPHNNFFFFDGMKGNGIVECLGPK
UniProt Q9UBL3, whole entry, looked up: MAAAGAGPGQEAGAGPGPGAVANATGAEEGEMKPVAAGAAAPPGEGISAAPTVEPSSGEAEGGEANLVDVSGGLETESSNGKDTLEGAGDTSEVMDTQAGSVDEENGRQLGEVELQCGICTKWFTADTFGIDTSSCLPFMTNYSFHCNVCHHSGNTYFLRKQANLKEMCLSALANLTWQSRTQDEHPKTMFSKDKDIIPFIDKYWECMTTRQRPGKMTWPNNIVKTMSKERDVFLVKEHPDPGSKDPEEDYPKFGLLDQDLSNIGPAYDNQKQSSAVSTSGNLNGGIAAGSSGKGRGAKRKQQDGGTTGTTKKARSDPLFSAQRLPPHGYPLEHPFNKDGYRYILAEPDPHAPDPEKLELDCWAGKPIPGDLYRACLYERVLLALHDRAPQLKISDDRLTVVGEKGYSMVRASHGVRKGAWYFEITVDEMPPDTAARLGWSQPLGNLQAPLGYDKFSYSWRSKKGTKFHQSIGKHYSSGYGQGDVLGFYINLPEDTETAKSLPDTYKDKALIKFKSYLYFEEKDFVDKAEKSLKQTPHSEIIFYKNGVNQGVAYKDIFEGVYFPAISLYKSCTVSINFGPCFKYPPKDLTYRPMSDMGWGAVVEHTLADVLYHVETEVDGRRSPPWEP

log2 ratio of iodoacetamide-alkyne labeling, inactive:
NCDN C158 (UniProt Q9UBB6) -0.0542
MPP6 C298 (UniProt Q9NZW5) 0.271
PEF1 C230 (UniProt Q9UBV8) 0.0438
MRPL27 C88 (UniProt Q9P0M9) 0.143
UniProt Q9NVH0_C227 -0.263
NDOR1 C507 (UniProt Q9UHB4) -0.463
UniProt Q9NWY4_C29 0.275
DNAJC11 C235 (UniProt Q9NVH1) 0.0577
NCDN C415 (UniProt Q9UBB6) 0.145
ITSN2 C810 (UniProt Q9NZM3) 0.0589
UBAP1 C45 (UniProt Q9NZ09) 0.163
GDE1 C127 (UniProt Q9NZC3) -0.219
OGFR C87 (UniProt Q9NZT2) 0.349
ANKFY1 C742 (UniProt Q9P2R3) 0.0443
ZMYM2 C1331 (UniProt Q9UBW7) 0.191
RRBP1 C1216 (UniProt Q9P2E9) 0.279
MAT2B C297 (UniProt Q9NZL9) 0.163
UniProt Q9P266_C243 0.201
FAM120A C669 (UniProt Q9NZB2) -0.0232
OCIAD1 C38 (UniProt Q9NX40) -0.0122
OGFR C417 (UniProt Q9NZT2) 0.0891
SRP68 C525 (UniProt Q9UHB9) 0.0575
CPSF2 C765 (UniProt Q9P2I0) 0.202
VAPA C128 (UniProt Q9P0L0) 0.32
UBA2 C30 (UniProt Q9UBT2) 0.167
ATXN10 C354 (UniProt Q9UBB4) 0.437
RCC2 C428 (UniProt Q9P258) 0.111
UniProt Q9NYL2_C285 0.135
SAE1 C214 (UniProt Q9UBE0) 0.0405
NCDN C4 (UniProt Q9UBB6) 0.397
ASH2L C362 (UniProt Q9UBL3) -0.0334
DDX18 C472 (UniProt Q9NVP1) -0.00927
ARMCX3 C52 (UniProt Q9UH62) 0.619
UniProt Q9NV64_C29 0.442
UTP6 C310 (UniProt Q9NYH9) 0.0434
CTTNBP2NL C312 (UniProt Q9P2B4) 0.0612
UniProt Q9UBD5_C621 -0.034

A section of the results above, as a working copy:
log2 ratio of iodoacetamide-alkyne labeling, inactive:
OCIAD1 C38 (UniProt Q9NX40) -0.0122
OGFR C417 (UniProt Q9NZT2) 0.0891
SRP68 C525 (UniProt Q9UHB9) 0.0575
CPSF2 C765 (UniProt Q9P2I0) 0.202
VAPA C128 (UniProt Q9P0L0) 0.32
UBA2 C30 (UniProt Q9UBT2) 0.167
ATXN10 C354 (UniProt Q9UBB4) 0.437
RCC2 C428 (UniProt Q9P258) 0.111
UniProt Q9NYL2_C285 0.135
SAE1 C214 (UniProt Q9UBE0) 0.0405
